The list shows a part of the results.
Key:
Experiment in all cases: log2 fold change, soluble protein after heating vs DMSO (PISA); higher = thermal stabilisation; K562 cells, 10 uM, 30 min; active = over 0.2 and 3.5 SD of the protein, either way, in both replicates (recomputed)
[1] = compound: CS(=O)(=O)c1ccc(-c2cnc(N)c(C(=O)Nc3ccccc3)n2)cc1
In short: (§1)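 Soluble protein was defined as the supernatant after 21,000xg for 90 min. It came from K562 cells at 2×10^6 cells/mL given 10 μM compound for 30 min, heated in aliquots for 3 min across 48°C-58°C, pooled, and extracted in PBS with 0.5% NP-40 at 4°C, and was quantified by TMTpro 16plex LC-MS/MS with equalised channel sums. Thermal stability against control samples, from duplicates, is reported as log2 fold change.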

Chains of the proteins cited; added tags and fusions are not shown. Lines headed by an entry give the natural chain unless they say otherwise; changes in a name come on top.
UniProt O60506: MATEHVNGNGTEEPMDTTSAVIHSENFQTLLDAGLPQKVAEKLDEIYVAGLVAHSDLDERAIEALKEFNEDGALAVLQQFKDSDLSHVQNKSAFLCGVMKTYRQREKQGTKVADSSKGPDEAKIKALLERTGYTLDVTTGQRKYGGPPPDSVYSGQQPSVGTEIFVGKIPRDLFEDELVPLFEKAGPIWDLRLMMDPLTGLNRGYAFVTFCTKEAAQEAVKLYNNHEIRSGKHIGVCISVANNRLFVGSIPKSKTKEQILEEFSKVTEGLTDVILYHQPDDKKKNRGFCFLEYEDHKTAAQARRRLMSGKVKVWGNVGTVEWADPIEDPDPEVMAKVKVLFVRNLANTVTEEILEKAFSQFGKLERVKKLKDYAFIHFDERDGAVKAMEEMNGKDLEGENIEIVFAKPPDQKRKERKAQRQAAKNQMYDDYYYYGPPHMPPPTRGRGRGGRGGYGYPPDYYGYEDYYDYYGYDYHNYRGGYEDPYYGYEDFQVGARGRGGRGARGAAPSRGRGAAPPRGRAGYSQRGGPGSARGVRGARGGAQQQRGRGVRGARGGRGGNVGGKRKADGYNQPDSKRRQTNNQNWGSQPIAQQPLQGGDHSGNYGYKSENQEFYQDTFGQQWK
UniProt Q15750: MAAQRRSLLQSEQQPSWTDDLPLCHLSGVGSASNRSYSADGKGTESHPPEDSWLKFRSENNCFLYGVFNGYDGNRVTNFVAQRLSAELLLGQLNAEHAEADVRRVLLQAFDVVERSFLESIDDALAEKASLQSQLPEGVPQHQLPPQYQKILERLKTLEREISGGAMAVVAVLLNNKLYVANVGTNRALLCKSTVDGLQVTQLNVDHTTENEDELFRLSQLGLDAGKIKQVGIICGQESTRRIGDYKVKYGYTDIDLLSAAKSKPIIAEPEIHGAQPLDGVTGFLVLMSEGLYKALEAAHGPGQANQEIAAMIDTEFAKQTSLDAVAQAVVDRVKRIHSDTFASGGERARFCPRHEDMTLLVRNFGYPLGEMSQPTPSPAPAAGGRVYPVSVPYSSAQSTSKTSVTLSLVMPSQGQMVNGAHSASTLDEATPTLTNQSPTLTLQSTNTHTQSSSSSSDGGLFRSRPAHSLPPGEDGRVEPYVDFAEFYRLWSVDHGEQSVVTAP
UniProt Q7RTN6: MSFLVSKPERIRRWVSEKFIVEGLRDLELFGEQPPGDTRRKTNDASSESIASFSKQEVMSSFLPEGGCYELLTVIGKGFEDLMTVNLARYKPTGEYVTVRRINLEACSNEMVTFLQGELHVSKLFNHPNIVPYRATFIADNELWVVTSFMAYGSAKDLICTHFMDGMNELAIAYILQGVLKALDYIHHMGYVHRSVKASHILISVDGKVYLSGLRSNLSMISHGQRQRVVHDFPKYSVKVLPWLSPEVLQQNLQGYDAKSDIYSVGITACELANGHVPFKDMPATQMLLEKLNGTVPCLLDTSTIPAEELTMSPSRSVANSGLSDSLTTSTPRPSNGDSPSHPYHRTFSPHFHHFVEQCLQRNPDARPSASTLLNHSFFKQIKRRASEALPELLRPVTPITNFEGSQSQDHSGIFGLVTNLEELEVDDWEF
UniProt Q8IYB8: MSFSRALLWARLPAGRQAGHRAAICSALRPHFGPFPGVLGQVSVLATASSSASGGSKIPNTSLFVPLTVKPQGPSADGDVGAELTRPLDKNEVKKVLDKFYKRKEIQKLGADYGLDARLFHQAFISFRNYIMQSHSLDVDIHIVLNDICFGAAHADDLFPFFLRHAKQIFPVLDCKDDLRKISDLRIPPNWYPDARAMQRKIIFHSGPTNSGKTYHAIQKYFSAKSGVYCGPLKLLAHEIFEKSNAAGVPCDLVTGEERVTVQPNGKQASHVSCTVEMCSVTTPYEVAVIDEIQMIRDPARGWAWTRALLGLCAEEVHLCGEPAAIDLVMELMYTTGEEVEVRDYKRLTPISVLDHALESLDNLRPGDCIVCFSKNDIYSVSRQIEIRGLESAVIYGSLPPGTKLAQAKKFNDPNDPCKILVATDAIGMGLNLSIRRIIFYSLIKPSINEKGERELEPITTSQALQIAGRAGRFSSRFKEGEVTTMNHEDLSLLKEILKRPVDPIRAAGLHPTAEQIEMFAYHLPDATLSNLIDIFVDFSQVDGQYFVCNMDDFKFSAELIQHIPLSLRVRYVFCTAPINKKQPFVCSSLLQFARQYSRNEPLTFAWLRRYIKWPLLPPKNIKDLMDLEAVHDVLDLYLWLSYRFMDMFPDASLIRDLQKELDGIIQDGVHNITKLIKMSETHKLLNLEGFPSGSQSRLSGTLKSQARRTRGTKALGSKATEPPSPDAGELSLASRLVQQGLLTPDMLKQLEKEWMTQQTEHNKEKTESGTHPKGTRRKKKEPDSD
UniProt O43760: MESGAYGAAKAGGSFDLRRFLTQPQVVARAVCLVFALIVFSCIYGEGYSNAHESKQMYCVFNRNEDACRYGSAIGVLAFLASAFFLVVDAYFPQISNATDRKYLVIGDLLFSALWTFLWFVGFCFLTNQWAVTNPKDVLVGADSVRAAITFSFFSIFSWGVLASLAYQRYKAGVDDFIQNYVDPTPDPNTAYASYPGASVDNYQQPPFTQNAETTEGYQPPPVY
UniProt Q86Y82: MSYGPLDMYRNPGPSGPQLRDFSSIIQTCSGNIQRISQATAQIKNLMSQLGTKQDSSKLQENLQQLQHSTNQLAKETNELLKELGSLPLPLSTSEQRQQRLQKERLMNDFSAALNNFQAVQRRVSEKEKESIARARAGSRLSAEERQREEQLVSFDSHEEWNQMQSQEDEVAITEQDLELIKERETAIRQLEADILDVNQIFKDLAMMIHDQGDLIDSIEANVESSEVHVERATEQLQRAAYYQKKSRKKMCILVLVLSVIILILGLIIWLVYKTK
UniProt Q12962, whole entry, looked up: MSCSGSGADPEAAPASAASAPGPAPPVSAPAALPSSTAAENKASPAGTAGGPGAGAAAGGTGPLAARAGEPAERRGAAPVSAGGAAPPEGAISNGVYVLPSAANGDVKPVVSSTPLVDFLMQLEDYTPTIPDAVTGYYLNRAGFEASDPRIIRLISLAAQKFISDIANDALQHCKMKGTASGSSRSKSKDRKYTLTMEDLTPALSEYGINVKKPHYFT
UniProt P46977: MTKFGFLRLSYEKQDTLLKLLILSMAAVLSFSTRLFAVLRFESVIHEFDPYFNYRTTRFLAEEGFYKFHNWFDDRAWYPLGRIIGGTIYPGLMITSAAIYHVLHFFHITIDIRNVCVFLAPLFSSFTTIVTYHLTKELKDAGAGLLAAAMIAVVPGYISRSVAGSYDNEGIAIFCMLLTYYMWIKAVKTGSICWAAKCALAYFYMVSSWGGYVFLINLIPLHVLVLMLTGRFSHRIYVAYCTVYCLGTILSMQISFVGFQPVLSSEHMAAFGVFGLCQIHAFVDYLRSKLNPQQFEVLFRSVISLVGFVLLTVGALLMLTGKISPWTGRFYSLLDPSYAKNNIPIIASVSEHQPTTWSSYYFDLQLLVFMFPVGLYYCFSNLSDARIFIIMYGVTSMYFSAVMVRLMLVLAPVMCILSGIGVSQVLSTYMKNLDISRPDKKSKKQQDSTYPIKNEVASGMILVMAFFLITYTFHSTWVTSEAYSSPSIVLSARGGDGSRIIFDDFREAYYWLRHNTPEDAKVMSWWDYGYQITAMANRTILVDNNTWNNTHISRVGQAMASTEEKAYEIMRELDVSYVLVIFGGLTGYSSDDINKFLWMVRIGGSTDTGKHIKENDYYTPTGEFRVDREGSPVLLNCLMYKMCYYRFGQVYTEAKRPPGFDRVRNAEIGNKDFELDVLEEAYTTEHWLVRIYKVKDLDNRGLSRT
UniProt Q8TCJ2: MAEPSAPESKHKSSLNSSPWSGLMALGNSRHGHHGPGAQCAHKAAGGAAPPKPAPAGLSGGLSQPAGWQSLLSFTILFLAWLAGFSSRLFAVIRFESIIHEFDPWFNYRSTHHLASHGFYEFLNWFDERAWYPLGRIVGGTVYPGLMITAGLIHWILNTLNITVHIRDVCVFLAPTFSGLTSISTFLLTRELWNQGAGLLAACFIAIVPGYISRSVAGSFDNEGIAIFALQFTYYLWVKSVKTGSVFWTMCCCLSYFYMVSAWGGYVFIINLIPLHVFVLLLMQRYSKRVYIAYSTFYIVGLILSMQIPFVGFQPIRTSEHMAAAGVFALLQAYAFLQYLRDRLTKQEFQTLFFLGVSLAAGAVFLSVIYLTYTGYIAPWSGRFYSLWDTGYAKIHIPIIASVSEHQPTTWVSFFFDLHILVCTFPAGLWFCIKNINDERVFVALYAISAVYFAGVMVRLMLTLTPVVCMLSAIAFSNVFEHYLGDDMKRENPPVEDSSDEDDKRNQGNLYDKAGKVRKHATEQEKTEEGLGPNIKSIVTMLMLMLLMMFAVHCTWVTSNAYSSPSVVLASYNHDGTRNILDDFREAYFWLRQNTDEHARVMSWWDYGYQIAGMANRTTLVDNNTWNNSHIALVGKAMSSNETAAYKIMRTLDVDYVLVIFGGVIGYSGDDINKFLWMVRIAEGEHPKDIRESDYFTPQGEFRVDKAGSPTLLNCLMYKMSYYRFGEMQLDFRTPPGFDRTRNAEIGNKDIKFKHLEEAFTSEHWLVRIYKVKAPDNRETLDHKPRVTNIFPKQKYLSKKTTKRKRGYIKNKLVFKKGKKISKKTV
UniProt Q9UNK0: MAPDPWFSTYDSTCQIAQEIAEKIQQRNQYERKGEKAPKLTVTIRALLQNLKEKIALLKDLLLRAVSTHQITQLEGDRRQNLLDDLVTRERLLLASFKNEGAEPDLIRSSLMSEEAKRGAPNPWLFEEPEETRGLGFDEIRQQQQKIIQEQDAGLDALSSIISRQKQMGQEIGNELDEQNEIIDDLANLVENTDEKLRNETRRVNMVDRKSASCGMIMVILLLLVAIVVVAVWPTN
UniProt Q12846: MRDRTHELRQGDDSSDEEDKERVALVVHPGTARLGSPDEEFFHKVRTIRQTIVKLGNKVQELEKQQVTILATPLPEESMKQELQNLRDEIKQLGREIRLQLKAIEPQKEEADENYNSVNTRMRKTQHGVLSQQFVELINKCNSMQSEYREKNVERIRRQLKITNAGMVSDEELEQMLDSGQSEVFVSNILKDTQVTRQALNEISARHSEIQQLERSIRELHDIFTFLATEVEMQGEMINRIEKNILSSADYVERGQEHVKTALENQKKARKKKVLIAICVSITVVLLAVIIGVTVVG
UniProt Q9Y2Z0: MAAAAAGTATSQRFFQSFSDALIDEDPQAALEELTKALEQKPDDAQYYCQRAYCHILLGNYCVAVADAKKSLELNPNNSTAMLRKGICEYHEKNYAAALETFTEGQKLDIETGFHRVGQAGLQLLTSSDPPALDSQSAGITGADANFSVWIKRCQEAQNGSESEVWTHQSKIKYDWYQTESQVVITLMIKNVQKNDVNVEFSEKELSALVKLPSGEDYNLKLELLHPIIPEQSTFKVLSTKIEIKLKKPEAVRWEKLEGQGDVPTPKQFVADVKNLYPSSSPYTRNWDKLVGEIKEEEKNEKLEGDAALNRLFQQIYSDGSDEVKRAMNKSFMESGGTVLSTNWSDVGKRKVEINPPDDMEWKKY
UniProt P0DMM9: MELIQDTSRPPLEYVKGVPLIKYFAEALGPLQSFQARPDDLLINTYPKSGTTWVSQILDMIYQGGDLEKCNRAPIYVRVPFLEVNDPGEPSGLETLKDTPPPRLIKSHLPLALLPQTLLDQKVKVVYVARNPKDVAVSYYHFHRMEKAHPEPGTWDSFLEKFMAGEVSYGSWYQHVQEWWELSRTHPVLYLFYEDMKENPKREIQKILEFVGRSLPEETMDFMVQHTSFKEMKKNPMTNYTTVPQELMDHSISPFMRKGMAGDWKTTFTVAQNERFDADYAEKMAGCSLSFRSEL
UniProt O00186: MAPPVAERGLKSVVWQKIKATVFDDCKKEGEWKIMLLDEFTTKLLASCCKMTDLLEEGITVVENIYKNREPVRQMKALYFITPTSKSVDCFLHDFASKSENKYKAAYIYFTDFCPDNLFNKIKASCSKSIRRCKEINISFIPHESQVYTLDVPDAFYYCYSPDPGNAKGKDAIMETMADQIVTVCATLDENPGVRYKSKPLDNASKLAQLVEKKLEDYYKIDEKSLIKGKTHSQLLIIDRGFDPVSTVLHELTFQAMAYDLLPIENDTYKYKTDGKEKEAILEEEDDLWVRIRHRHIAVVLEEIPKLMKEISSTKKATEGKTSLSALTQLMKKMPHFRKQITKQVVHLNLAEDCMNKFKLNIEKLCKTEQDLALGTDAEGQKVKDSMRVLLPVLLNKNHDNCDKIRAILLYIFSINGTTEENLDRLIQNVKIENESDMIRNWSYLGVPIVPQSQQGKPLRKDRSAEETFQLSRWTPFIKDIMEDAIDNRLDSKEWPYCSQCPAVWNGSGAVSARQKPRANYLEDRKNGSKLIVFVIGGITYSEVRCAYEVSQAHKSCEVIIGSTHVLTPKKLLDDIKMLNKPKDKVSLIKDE

crizotinib = compound: C[C@@H](Oc1cc(-c2cnn(C3CCNCC3)c2)cnc1N)c1c(Cl)ccc(F)c1Cl [crizotinib]
In short: as §1

[2] = compound: C[C@@H]1COCCN1C2=NC(=NC(=C2)C3(CC3)S(=O)(=O)C)C4=C5C=CNC5=CC=C4
In short: as §1

[3] = compound: C[C@H](C1=CC=C(C=C1)C(=O)NC2=C3C=CNC3=NC=C2)N
In short: as §1

duvelisib = compound: C[C@H](Nc1ncnc2nc[nH]c12)c1cc2cccc(Cl)c2c(=O)n1-c1ccccc1 [duvelisib]
In short: as §1

gandotinib = compound: Cc1cc(Nc2cc(CN3CCOCC3)c3nc(C)c(Cc4ccc(Cl)cc4F)n3n2)n[nH]1 [gandotinib]
In short: as §1

tozasertib = compound: Cc1cc(Nc2cc(N3CCN(C)CC3)nc(Sc3ccc(NC(=O)C4CC4)cc3)n2)n[nH]1 [tozasertib]
In short: as §1

[4] = compound: Cc1cc(SCc2sc(-c3ccc(C(F)(F)F)cc3)nc2C)ccc1OCC(=O)O
In short: as §1

doramapimod = compound: Cc1ccc(-n2nc(C(C)(C)C)cc2NC(=O)Nc2ccc(OCCN3CCOCC3)c3ccccc23)cc1 [doramapimod]
In short: as §1

ispinesib = compound: Cc1ccc(C(=O)N(CCCN)[C@@H](c2nc3cc(Cl)ccc3c(=O)n2Cc2ccccc2)C(C)C)cc1 [ispinesib]
In short: as §1

bafetinib = compound: Cc1ccc(NC(=O)c2ccc(CN3CC[C@H](N(C)C)C3)c(C(F)(F)F)c2)cc1Nc1nccc(-c2cncnc2)n1 [bafetinib]
In short: as §1

[5] = compound: Cc1cccc(CC(=O)N2CCc3c2ccc(-c2cn(C)c4ncnc(N)c24)c3F)n1
In short: as §1

nilotinib = compound: Cc1cn(-c2cc(NC(=O)c3ccc(C)c(Nc4nccc(-c5cccnc5)n4)c3)cc(C(F)(F)F)c2)cn1 [nilotinib]
In short: as §1

[6] = compound: Cc1nc(Nc2n[nH]c3c2CN(C(=O)N[C@H](CN(C)C)c2ccccc2)C3(C)C)c2sccc2n1
In short: as §1

dasatinib = compound: Cc1nc(Nc2ncc(C(=O)Nc3c(C)cccc3Cl)s2)cc(N2CCN(CCO)CC2)n1 [dasatinib]
In short: as §1

[7] = compound: Cc1ncc(-c2ccnc(Nc3ccc(S(C)(=O)=O)cc3)n2)n1C(C)C
In short: as §1

[8] = compound: Cn1cc(-c2ccc3c(c2)CCN3C(=O)Cc2cccc(C(F)(F)F)c2)c2c(N)ncnc21
In short: as §1

[9] = compound: Cn1cc(-c2ccc3nnc(C(F)(F)c4ccc5ncccc5c4)n3n2)cn1
In short: as §1

tipifarnib = compound: Cn1cncc1[C@@](N)(c1ccc(Cl)cc1)c1ccc2c(c1)c(-c1cccc(Cl)c1)cc(=O)n2C [tipifarnib]
In short: as §1

mubritinib = compound: FC(F)(F)c1ccc(/C=C/c2nc(COc3ccc(CCCCn4ccnn4)cc3)co2)cc1 [mubritinib]
In short: as §1

Measured: log2 fold change

SYNCRIP (UniProt O60506)
inactive: [1] -0.095 | crizotinib 0.025 | [2] -0.214 | [3] 0.18 | duvelisib -0.119 | gandotinib 0.117 | tozasertib 0.028 | [4] 0.017 | doramapimod 0.035 | ispinesib -0.155 | bafetinib 0.047 | [5] -0.015 | nilotinib -0.045 | [6] 0.036 | dasatinib 0.092 | [7] 0.006 | [8] -0.185 | [9] -0.111 | tipifarnib 0.108 | mubritinib -0.067

TACO1 (UniProt Q9BSH4)
inactive: [1] 0.064 | crizotinib 0 | [2] 0.095 | [3] -0.033 | duvelisib 0.159 | gandotinib 0.058 | tozasertib 0.031 | [4] 0.14 | doramapimod 0 | ispinesib 0.157 | bafetinib 0.131 | [5] -0.116 | nilotinib 0.031 | [6] 0.108 | dasatinib -0.145 | [7] 0.031 | [8] 0.106 | [9] -0.03 | tipifarnib -0.163 | mubritinib -0.137

TAB1 (UniProt Q15750)
inactive: [1] 0.058 | crizotinib -0.06 | [2] 0.006 | [3] 0.04 | duvelisib -0.039 | gandotinib -0.081 | tozasertib 0.067 | [4] 0.074 | doramapimod -0.05 | ispinesib 0.001 | bafetinib -0.001 | [5] 0.039 | nilotinib -0.171 | [6] -0.05 | dasatinib -0.182 | [7] 0.124 | [8] -0.011 | [9] 0.052 | tipifarnib -0.117 | mubritinib 0.082

STRADA (UniProt Q7RTN6)
inactive: [1] -0.007 | crizotinib -0.007 | [2] 0.069 | [3] -0.072 | duvelisib 0.033 | gandotinib -0.065 | tozasertib 0.022 | [4] -0.009 | doramapimod 0.012 | ispinesib 0.013 | bafetinib -0.039 | [5] -0.034 | nilotinib 0.044 | [6] -0.064 | dasatinib 0.034 | [7] 0.001 | [8] 0.034 | [9] 0.019 | tipifarnib 0.035 | mubritinib 0.036

SUPV3L1 (UniProt Q8IYB8)
inactive: [1] -0.022 | crizotinib 0.018 | [2] 0.023 | [3] -0.06 | duvelisib 0.018 | gandotinib 0.004 | tozasertib -0.003 | [4] -0.013 | doramapimod -0.029 | ispinesib 0.079 | bafetinib -0.043 | [5] -0.017 | nilotinib -0.036 | [6] -0.032 | dasatinib 0.002 | [7] 0 | [8] -0.054 | [9] -0.059 | tipifarnib 0.036 | mubritinib -0.048

SYNGR2 (UniProt O43760)
inactive: [1] -0.044 | crizotinib 0.132 | [2] 0.168 | [3] 0.021 | duvelisib 0.062 | gandotinib -0.047 | tozasertib -0.018 | [4] -0.163 | doramapimod 0.014 | ispinesib -0.005 | bafetinib -0.022 | [5] -0.033 | nilotinib 0.051 | [6] 0.002 | dasatinib -0.016 | [7] -0.026 | [8] -0.018 | [9] -0.034 | tipifarnib 0.027 | mubritinib 0.054

STX12 (UniProt Q86Y82)
inactive: [1] 0.002 | crizotinib -0.049 | [2] 0.01 | [3] -0.036 | duvelisib 0.048 | gandotinib -0.023 | tozasertib -0.035 | [4] 0.007 | doramapimod 0.02 | ispinesib -0.075 | bafetinib -0.056 | [5] -0.022 | nilotinib 0.015 | [6] -0.036 | dasatinib 0.059 | [7] -0.003 | [8] 0.02 | [9] 0.044 | tipifarnib -0.025 | mubritinib 0.018

TAF10 (UniProt Q12962)
inactive: [1] -0.085 | crizotinib 0.123 | [2] 0.153 | [3] -0.002 | duvelisib 0.014 | gandotinib 0.05 | tozasertib 0.007 | [4] -0.067 | doramapimod -0.071 | ispinesib 0.073 | bafetinib 0.009 | [5] -0.033 | nilotinib 0 | [6] 0.05 | dasatinib 0.062 | [7] -0.037 | [8] 0.031 | [9] 0.015 | tipifarnib -0.023 | mubritinib 0.009

STT3A (UniProt P46977)
inactive: [1] -0.015 | crizotinib 0.026 | [2] -0.041 | [3] 0.014 | duvelisib -0.026 | gandotinib -0.018 | tozasertib 0.009 | [4] -0.001 | doramapimod -0.008 | ispinesib -0.046 | bafetinib -0.036 | [5] 0.024 | nilotinib -0.046 | [6] 0.049 | dasatinib 0.015 | [7] -0.035 | [8] -0.074 | [9] 0.027 | tipifarnib 0.022 | mubritinib -0.021

STT3B (UniProt Q8TCJ2)
inactive: [1] 0.006 | crizotinib 0.074 | [2] -0.047 | [3] 0.025 | duvelisib -0.122 | gandotinib 0.069 | tozasertib 0.009 | [4] -0.054 | doramapimod -0.017 | ispinesib -0.026 | bafetinib -0.02 | [5] 0 | nilotinib 0.022 | [6] 0.021 | dasatinib 0.072 | [7] -0.054 | [8] -0.106 | [9] 0.032 | tipifarnib 0.11 | mubritinib -0.026

Quoted at random: 2 records from the list, in no set order.
TAB1 (UniProt Q15750)
inactive: [1] 0.058 | crizotinib -0.06 | [2] 0.006 | [3] 0.04 | duvelisib -0.039 | gandotinib -0.081 | tozasertib 0.067 | [4] 0.074 | doramapimod -0.05 | ispinesib 0.001 | bafetinib -0.001 | [5] 0.039 | nilotinib -0.171 | [6] -0.05 | dasatinib -0.182 | [7] 0.124 | [8] -0.011 | [9] 0.052 | tipifarnib -0.117 | mubritinib 0.082

SUPV3L1 (UniProt Q8IYB8)
inactive: [1] -0.022 | crizotinib 0.018 | [2] 0.023 | [3] -0.06 | duvelisib 0.018 | gandotinib 0.004 | tozasertib -0.003 | [4] -0.013 | doramapimod -0.029 | ispinesib 0.079 | bafetinib -0.043 | [5] -0.017 | nilotinib -0.036 | [6] -0.032 | dasatinib 0.002 | [7] 0 | [8] -0.054 | [9] -0.059 | tipifarnib 0.036 | mubritinib -0.048

Remaining list, next part

STX8 (UniProt Q9UNK0)
inactive: [1] -0.039 | crizotinib -0.117 | [2] 0.057 | [3] 0.008 | duvelisib 0.007 | gandotinib 0.033 | tozasertib -0.012 | [4] -0.025 | doramapimod 0.056 | ispinesib -0.224 | bafetinib -0.002 | [5] 0.036 | nilotinib 0.033 | [6] 0.028 | dasatinib 0.055 | [7] -0.02 | [8] -0.034 | [9] -0.037 | tipifarnib 0.042 | mubritinib 0.078

STX4 (UniProt Q12846)
inactive: [1] 0.067 | crizotinib 0.095 | [2] 0.01 | [3] -0.044 | duvelisib 0.068 | gandotinib -0.102 | tozasertib -0.017 | [4] 0.008 | doramapimod -0.035 | ispinesib 0.154 | bafetinib -0.074 | [5] -0.031 | nilotinib -0.014 | [6] -0.082 | dasatinib -0.086 | [7] 0.085 | [8] 0.073 | [9] 0.018 | tipifarnib -0.007 | mubritinib 0.04

SUGT1 (UniProt Q9Y2Z0)
inactive: [1] 0.012 | crizotinib 0.014 | [2] 0.009 | [3] -0.117 | duvelisib 0.004 | gandotinib -0.049 | tozasertib 0.055 | [4] 0 | doramapimod -0.033 | ispinesib 0.061 | bafetinib -0.052 | [5] 0.026 | nilotinib -0.005 | [6] -0.032 | dasatinib -0.019 | [7] 0.008 | [8] 0.006 | [9] -0.009 | tipifarnib -0.051 | mubritinib 0.057

SULT1A3 isoform 3 (UniProt P0DMM9)
inactive: [1] 0.058 | crizotinib 0.021 | [2] 0.082 | [3] 0.056 | duvelisib 0.06 | gandotinib 0.04 | tozasertib 0.124 | [4] 0.011 | doramapimod -0.028 | ispinesib -0.048 | bafetinib -0.149 | [5] 0.134 | nilotinib -0.014 | [6] 0.036 | dasatinib -0.132 | [7] 0.025 | [8] 0.237 | [9] 0.321 | tipifarnib 0.016 | mubritinib -0.004

SYAP1 (UniProt Q96A49)
inactive: [1] 0.028 | crizotinib -0.037 | [2] 0.04 | [3] -0.059 | duvelisib 0.039 | gandotinib -0.093 | tozasertib 0.017 | [4] -0.005 | doramapimod 0.031 | ispinesib -0.003 | bafetinib -0.027 | [5] 0.019 | nilotinib -0.006 | [6] -0.035 | dasatinib -0.022 | [7] 0.017 | [8] -0.013 | [9] 0.002 | tipifarnib -0.035 | mubritinib 0.037

STXBP3 (UniProt O00186)
inactive: [1] 0.068 | crizotinib -0.186 | [2] 0.006 | [3] 0.104 | duvelisib -0.01 | gandotinib -0.164 | tozasertib 0.029 | [4] 0.132 | doramapimod 0.076 | ispinesib -0.133 | bafetinib 0.018 | [5] 0.096 | nilotinib -0.107 | [6] -0.192 | dasatinib -0.155 | [7] 0.008 | [8] 0.044 | [9] -0.029 | tipifarnib -0.106 | mubritinib 0.028

Reference: the supplement of paper PMC10849652
